US20250283871A1, “COMPOSITIONS AND METHODS FOR MODULATING THE INTERACTION BETWEEN SS18-SSX FUSION ONCOPROTEIN AND NUCLEOSOMES” (Dana-Farber Cancer Institute, Inc., priority 2020, published 2025)

Test system: BAF complex subunits and histone proteins
Test: Mass spectrometry proteomics of purified HA-SS18 WT and HA-SS18-SSX1 complexes (Tables 5A-5E)
Design: species or system human
Details: HEK-293T
[1] = HA-SS18SSX1_NE_peptides (Table 5B), HA-SS18-SSX1 BAF complex purification from soluble nuclear extract
[2] = HA-SS18WT_NE_peptides: HA-SS18 WT complexes purified from nuclear extract (NE), label = protein identified (Gene Symbol)
[3] = HA-SS18WT_CHR_peptides: protein identified in HA-SS18 WT BAF complex purification from nuclease-treated solubilized chromatin (CHR)
[4] = HA-SS18WT_NE_peptides: proteins co-purified with HA-SS18 WT from nuclear extract (NE)

Molecule	Total (peptides) [1]	Unique (peptides) [1]	Total (peptides) [2]	Unique (peptides) [2]	Total (total peptides) [3]	Unique (unique peptides) [3]	Total (peptides) [4]	Unique (peptides) [4]
SLC39A14 (protein, UniProt Q15043 31-492, looked up) Metal cation symporter ZIP14: SSLGAPAISAASFLQDLIHRYGEGDSLTLQQLKALLNHLDVGVGRGNVTQHVQGHRNLSTCFSSGDLFTAHNFSEQSRIGSSELQEFCPTILQQLDSRACTSENQENEENEQTEEGRPSAVEVWGYGLLCVTVISLCSLLGASVVPFMKKTFYKRLLLYFIALAIGTLYSNALFQLIPEAFGFNPLEDYYVSKSAVVFGGFYLFFFTEKILKILLKQKNEHHHGHSHYASESLPSKKDQEEGVMEKLQNGDLDHMIPQHCSSELDGKAPMVDEKVIVGSLSVQDLQASQSACYWLKGVRYSDIGTLAWMITLSDGLHNFIDGLAIGASFTVSVFQGISTSVAILCEEFPHELGDFVILLNAGMSIQQALFFNFLSACCCYLGLAFGILAGSHFSANWIFALAGGMFLYISLADMFPEMNEVCQEDERKGSILIPFIIQNLGLLTGFTIMVVLTMYSGQIQIG	1	1						
SFXN4 (protein, UniProt Q6P4A7 2-337, looked up) Sideroflexin-4: SLEQEEETQPGRLLGRRDAVPAFIEPNVRFWITERQSFIRRFLQWTELLDPTNVFISVESIENSRQLLCTNEDVSSPASADQRIQEAWKRSLATVHPDSSNLIPKLFRPAAFLPFMAPTVFLSMTPLKGIKSVILPQVFLCAYMAAFNSINGNRSYTCKPLERSLLMAGAVASSTFLGVIPQFVQMKYGLTGPWIKRLLPVIFLVQASGMNVYMSRSLESIKGIAVMDKEGNVLGHSRIAGTKAVRETLASRIVLFGTSALIPEVFTYFFKRTQYFRKNPGSLWILKLSCTVLAMGLMVPFSFSIFPQIGQIQYCSLEEKIQSPTEETEIFYHRGV	1	1	5	5				
CPS1 (protein, UniProt P31327 39-1500, looked up) Carbamoyl-phosphate synthase …: LSVKAQTAHIVLEDGTKMKGYSFGHPSSVAGEVVFNTGLGGYPEAITDPAYKGQILTMANPIIGNGGAPDTTALDELGLSKYLESNGIKVSGLLVLDYSKDYNHWLATKSLGQWLQEEKVPAIYGVDTRMLTKIIRDKGTMLGKIEFEGQPVDFVDPNKQNLIAEVSTKDVKVYGKGNPTKVVAVDCGIKNNVIRLLVKRGAEVHLVPWNHDFTKMEYDGILIAGGPGNPALAEPLIQNVRKILESDRKEPLFGISTGNLITGLAAGAKTYKMSMANRGQNQPVLNITNKQAFITAQNHGYALDNTLPAGWKPLFVNVNDQTNEGIMHESKPFFAVQFHPEVTPGPIDTEYLFDSFFSLIKKGKATTITSVLPKPALVASRVEVSKVLILGSGGLSIGQAGEFDYSGSQAVKAMKEENVKTVLMNPNIASVQTNEVGLKQADTVYFLPITPQFVTEVIKAEQPDGLILGMGGQTALNCGVELFKRGVLKEYGVKVLGTSVESIMATEDRQLFSDKLNEINEKIAPSFAVESIEDALKAADTIGYPVMIRSAYALGGLGSGICPNRETLMDLSTKAFAMTNQILVEKSVTGWKEIEYEVVRDADDNCVTVCNMENVDAMGVHTGDSVVVAPAQTLSNAEFQMLRRTSINVVRHLGIVGECNIQFALHPTSMEYCIIEVNARLSRSSALASKATGYPLAFIAAKIALGIPLPEIKNVVSGKTSACFEPSLDYMVTKIPRWDLDRFHGTSSRIGSSMKSVGEVMAIGRTFEESFQKALRMCHPSIEGFTPRLPMNKEWPSNLDLRKELSEPSSTRIYAIAKAIDDNMSLDEIEKLTYIDKWFLYKMRDILNMEKTLKGLNSESMTEETLKRAKEIGFSDKQISKCLGLTEAQTRELRLKKNIHPWVKQIDTLAAEYPSVTNYLYVTYNGQEHDVNFDDHGMMVLGCGPYHIGSSVEFDWCAVSSIRTLRQLGKKTVVVNCNPETVSTDFDECDKLYFEELSLERILDIYHQEACGGCIISVGGQIPNNLAVPLYKNGVKIMGTSPLQIDRAEDRSIFSAVLDELKVAQAPWKAVNTLNEALEFAKSVDYPCLLRPSYVLSGSAMNVVFSEDEMKKFLEEATRVSQEHPVVLTKFVEGAREVEMDAVGKDGRVISHAISEHVEDAGVHSGDATLMLPTQTISQGAIEKVKDATRKIAKAFAISGPFNVQFLVKGNDVLVIECNLRASRSFPFVSKTLGVDFIDVATKVMIGENVDEKHLPTLDHPIIPADYVAIKAPMFSWPRLRDADPILRCEMASTGEVACFGEGIHTAFLKAMLSTGFKIPQKGILIGIQQSFRPRFLGVAEQLHNEGFKLFATEATSDWLNANNVPATPVAWPSQEGQNPSLSSIRKLIRDGSIDLVINLPNNNTKFVHDNYVIRRTAVDSGIPLLTNFQVTKLFAEAVQKSRKVDSKSLFHYRQYSAGKAA	1	1						
EID2 (protein, UniProt Q8N6I1 1-236, looked up) EP300-interacting inhibitor …: MSKLPADSSVPQTGAANGDRDVPQAEVGRGRREPAPAQPEEAGEGAMAAARGGPVPAAREGRMAAARAAPAAAARGAPVAAAALARAAAAGRESPAAAAAREARMAEVARLLGEPVDEEGPEGRPRSRHGNGGLAALPYLRLRHPLSVLGINYQQFLRHYLENYPIAPGRIQELEERRRRFVEACRAREAAFDAEYQRNPHRVDLDILTFTIALTASEVINPLIEELGCDKFINRE	1	1			1	1		
ACSL1 (protein, UniProt P33121 1-698, looked up) Long-chain-fatty-acid--CoA …: MQAHELFRYFRMPELVDFRQYVRTLPTNTLMGFGAFAALTTFWYATRPKPLKPPCDLSMQSVEVAGSGGARRSALLDSDEPLVYFYDDVTTLYEGFQRGIQVSNNGPCLGSRKPDQPYEWLSYKQVAELSECIGSALIQKGFKTAPDQFIGIFAQNRPEWVIIEQGCFAYSMVIVPLYDTLGNEAITYIVNKAELSLVFVDKPEKAKLLLEGVENKLIPGLKIIVVMDAYGSELVERGQRCGVEVTSMKAMEDLGRANRRKPKPPAPEDLAVICFTSGTTGNPKGAMVTHRNIVSDCSAFVKATENTVNPCPDDTLISFLPLAHMFERVVECVMLCHGAKIGFFQGDIRLLMDDLKVLQPTVFPVVPRLLNRMFDRIFGQANTTLKRWLLDFASKRKEAELRSGIIRNNSLWDRLIFHKVQSSLGGRVRLMVTGAAPVSATVLTFLRAALGCQFYEGYGQTECTAGCCLTMPGDWTAGHVGAPMPCNLIKLVDVEEMNYMAAEGEGEVCVKGPNVFQGYLKDPAKTAEALDKDGWLHTGDIGKWLPNGTLKIIDRKKHIFKLAQGEYIAPEKIENIYMRSEPVAQVFVHGESLQAFLIAIVVPDVETLCSWAQKRGFEGSFEELCRNKDVKKAILEDMVRLGKDSGLKPFEQVKGITLHPELFSIDNGLLTPTMKAKRPELRNYFRSQIDDLYSTIKV	1	1						
ATL2 (protein, UniProt Q8NHH9 1-583, looked up) Atlastin-2: MAEGDEAARGQQPHQGLWRRRRTSDPSAAVNHVSSTTSLGENYEDDDLVNSDEVMKKPCPVQIVLAHEDDHNFELDEEALEQILLQEHIRDLNIVVVSVAGAFRKGKSFLLDFMLRYMYNKDSQSWIGGNNEPLTGFTWRGGCERETTGIQVWNEVFVIDRPNGTKVAVLLMDTQGAFDSQSTIKDCATVFALSTMTSSVQVYNLSQNIQEDDLQHLQLFTEYGRLAMEEIYQKPFQTLMFLIRDWSYPYEHSYGLEGGKQFLEKRLQVKQNQHEELQNVRKHIHNCFSNLGCFLLPHPGLKVATNPSFDGRLKDIDEDFKRELRNLVPLLLAPENLVEKEISGSKVTCRDLVEYFKAYIKIYQGEELPHPKSMLQATAEANNLAAVAGARDTYCKSMEQVCGGDKPYIAPSDLERKHLDLKEVAIKQFRSVKKMGGDEFCRRYQDQLEAEIEETYANFIKHNDGKNIFYAARTPATLFAVMFAMYIISGLTGFIGLNSIAVLCNLVMGLALIFLCTWAYVKYSGEFREIGTVIDQIAETLWEQVLKPLGDNLMEENIRQSVTNSIKAGLTDQVSHHARLKTD	1	1					2	2
